# System: DRG neurons
# Assay: Fluorescence spectroscopy of FM 4-64 labeled DRG neurons
# Type: cell-based, chick
# Description: For spectroscopy experiments, DRG neurons were grown on 11×22 mm plastic coverslips that were treated with Alconox and coated with Type VII rat tail collagen, using the same methods that were mentioned previously. Cells were plated with ˜15×10^4 cells in each 35 mm tissue culture dish containing one plastic coverslip. The cells were incubated in 5% CO2 at 37° C. for 2 days before experiments began.
# Before scanning the cell samples, the coverslip was mounted into a coverglass holder and was held inside a cuvette at a 45° angle from the light source and the photo detector. The coverglass holder was placed in a cuvette containing 1×HBSS to rinse the media from the cells prior to the experiments. For the spectroscopy experiments, the coverglass holder was placed in the cuvette that was filled with either 1×HBSS or stimulating solutions. The orientation of the coverglass in the cuvette was situated so that the cell surface was facing the light source and photodetector, both at 45° angles. For experiments using FM® 4-64, scan were conducted using a HORIBA Jobin Yvon FluoroLog®-3 spectrofluorometer with an excitation wavelength of 558 nm and an emission range was detected from 566 to 750 nm. The slit width for excitation and emission was 3 nm and data was collected every 0.2 sec, once for each wavelength. Fluorescence intensity was detected in counts per second (cps). The data was transferred into MS Excel and analyzed using Matlab.
# In Matlab, the maximum intensity of each scan was found for the emission wavelength range of interest and the ratio of the maximum emission intensities was taken between non-labeled, non-stimulated cells and FM®-labeled cells before and after stimulation. This ratio was used to determine the difference in fluorescence, and therefore the amount of stained membranes present in the sample before and after stimulation with ionomycin.
# To determine whether a change in fluorescence of FM®-labeled neurons could be measured, the cells were stained and stimulated using the same methods mentioned above. Four emission scans were performed: a control scan of the non-labeled neurons in HBSS, a scan of the FM®-labeled neurons in HBSS, a scan of the FM® labeled neurons in ionomycin 5 min after initial stimulation, and a scan of the post stimulated, FM®-labeled neurons in 1×HBSS wash. The cells were rinsed with warm 1×HBSS before each scan, and the cells were stimulated for a total of 10 min before rinsed with 1×HBSS for the fourth scan. The ratio of fluorescence intensities of non-labeled neurons to FM®-labeled neurons, FM®-labeled ionomycin-stimulated neurons, and FM®-labeled ionomycin-stimulated rinsed neurons in Table 5.
# [1] = FM-labeled neurons in HBSS, before stimulation
Structure (SMILES),shift of peak emission wavelength up from non-labeled neuron scans,Ratio of Fluorescence Intensities at 667 nm (FM-labeled neurons in HBSS vs non-labeled neurons),Fluorescence Intensity at 667 nm [1],Fluorescence Intensity at Peak Emission Wavelength [1],"Peak Emission Wavelength (FM-labeled neurons in HBSS, before stimulation, excitation 558 nm)"
C[C@H](CCC(=O)O)C[C@H](C)C[C@H](C)C(=O)/C=C(\O)[C@H](C)C[C@H](C)C/C=C/[C@@H](C)[C@@H](O)[C@@H](C)[C@@H](O)C[C@@H]1CC[C@@](C)([C@H]2CC[C@@](C)([C@@H](C)O)O2)O1 [ionomycin],15-19 nm,–,–,–,–
CCN(CC)c1ccc(/C=C/C=C/C=C/c2cc[n+](CCC[N+](CC)(CC)CC)cc2)cc1.[Br-].[Br-] [FM® 4-64],7-9 nm,1.85,2975 cps,3098 cps,674 nm
